PubChem BioAssay AID1259254 – NCATS, 2017
Purpose: 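Genome-wide screen for genes that prevent DNA re-replication in cancer cells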 (primary screen). System: human HCT116 colorectal cancer cells. Reagents: single siRNA against human genes. Timing: 3 days. Detection: 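Nuclei stained with Hoechst and imaged; cell-cycle phase assigned by DNA content; G2 share scaled per plate, non-targeting siRNA 0%, GMNN siRNA 100%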. Direction: G2 robust z-score and G2 cells, % of GMNN control: higher = more G2 cells, more excess DNA replication. Hit rule: 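An siRNA counts as active if its G2 robust z-score lies at least 5 MADs above the screen median; here such calls match roughly 38% of GMNN control or more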.
This is an unselected part of about 59,000 reagents. About 1,550 of them (2.6%) count as active. 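G2 share is only a proxy for re-replication; each gene was hit by three separate siRNAs, and active genes were retested.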 A number with no mark means an inactive call. Reagents against one gene are numbered here. Not all columns of the deposit are shown. No sequences are given here. Not stated in the record: the amount of reagent.

SLC22A16 #1
- G2 robust z-score: 0.975
- G2 cells, % of GMNN control: 9.82

SLC22A16 #2
- G2 robust z-score: -0.533
- G2 cells, % of GMNN control: -0.784

SLC22A16 #3
- G2 robust z-score: 0.145
- G2 cells, % of GMNN control: 3.99

MTMR1 #1
- G2 robust z-score: -0.383
- G2 cells, % of GMNN control: 0.274

MTMR1 #2
- G2 robust z-score: 2.34
- G2 cells, % of GMNN control: 19.4

MTMR1 #3
- G2 robust z-score: 0.709
- G2 cells, % of GMNN control: 7.96

C4BPA #1
- G2 robust z-score: -0.848
- G2 cells, % of GMNN control: -3

C4BPA #2
- G2 robust z-score: 0.166
- G2 cells, % of GMNN control: 4.14

C4BPA #3
- G2 robust z-score: -0.0879
- G2 cells, % of GMNN control: 2.35

FIBP #1
- G2 robust z-score: -1.05
- G2 cells, % of GMNN control: -4.42

FIBP #2
- G2 robust z-score: -0.606
- G2 cells, % of GMNN control: -1.29

FIBP #3
- G2 robust z-score: -0.673
- G2 cells, % of GMNN control: -1.77

2 of these entries, set out differently.
MTMR1 #1 — G2 robust z-score = -0.383; G2 cells, % of GMNN control = 0.274
MTMR1 #2 — G2 robust z-score = 2.34; G2 cells, % of GMNN control = 19.4

More reagents follow.
NUDCD2 #1
- G2 robust z-score: -0.309
- G2 cells, % of GMNN control: 0.796

NUDCD2 #2
- G2 robust z-score: 1.2
- G2 cells, % of GMNN control: 11.4

NUDCD2 #3
- G2 robust z-score: -0.76
- G2 cells, % of GMNN control: -2.38

LOC440300 #1
- G2 robust z-score: -0.243
- G2 cells, % of GMNN control: 1.26

LOC440300 #2
- G2 robust z-score: 6.75 (active)
- G2 cells, % of GMNN control: 50.4

LOC440300 #3
- G2 robust z-score: -0.523
- G2 cells, % of GMNN control: -0.709

COX8C #1
- G2 robust z-score: 2.04
- G2 cells, % of GMNN control: 17.3

COX8C #2
- G2 robust z-score: 2.93
- G2 cells, % of GMNN control: 23.6

COX8C #3
- G2 robust z-score: 0.0601
- G2 cells, % of GMNN control: 3.39

TESPA1 #1
- G2 robust z-score: 0.273
- G2 cells, % of GMNN control: 4.89

TESPA1 #2
- G2 robust z-score: 1.17
- G2 cells, % of GMNN control: 11.2

TESPA1 #3
- G2 robust z-score: 3.9
- G2 cells, % of GMNN control: 30.4
